Source: PubChem BioAssay AID1053208 (Peter MacCallum Cancer Centre, 2014)
Aim: 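Genes whose silencing cuts survival of bone tumour cells only with doxorubicin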 (primary screen). System: mouse osteosarcoma cells, early-passage culture from an engineered mouse model of fibroblastic bone tumour. Reagents: siRNA pool against mouse genes, 40 nM. Time to read-out: about 120 h (48 h before drug, then 72 h with drug). Challenge: doxorubicin 100 nM for 72 h, roughly 30-40% inhibitory dose. Detection: 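Luminescent ATP signal taken as viability with or without 100 nM doxorubicin for 72 h; mean of two wells set against non-targeting siRNA and turned into robust z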. Direction: viability z-score with doxorubicin and doxorubicin viability vs non-targeting: higher = more viable cells under doxorubicin; viability z-score without drug: higher = more viable cells with knock-down alone; z-score of drug to no-drug ratio: higher = less drug sensitisation by knock-down. Call rule: 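a pool counts as active when its viability z-score with doxorubicin is -2 or below and its z-score without drug lies between -2 and 2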.
Shown is one part, drawn at random, of about 17,000 reagents. 788 of all reagents (4.7%) were called active. 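Calls rest on z-score classes alone; an extra cut-off of viability at most 70% of control was not applied to them.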 A number with no mark means an inactive call.

no.	Target gene	combined z-score class	viability z-score with doxorubicin	viability z-score without drug	z-score of drug to no-drug ratio	doxorubicin viability vs non-targeting
1	Reep3	no change with or without drug	1.35	0	1.57	1.06
2	Paox	no change with or without drug	-1.12	-0.84	-0.56	0.84
3	Vamp1	no change with or without drug	-0.9	-0.84	-0.22	0.86
4	Adcy10	no change with or without drug	0	0.17	0	0.94
5	Or2y1f	no change with or without drug	-0.56	-1.18	0.34	0.89
6	Myo1d	no change with or without drug	1.35	1.85	0.22	1.06
7	Trex2	no change with or without drug	-0.22	1.18	-0.9	0.92
8	Emb	high cell count without drug only	0.9	2.7	-0.67	1.02
9	Sulf1	no change with or without drug	-0.45	0.17	-0.45	0.9
10	Pcdhb9	low cell count with doxorubicin only (active)	-2.02	-0.51	-1.69	0.76
11	Gabra1	no change with or without drug	0.67	-0.34	1.12	1
12	Gckr	low cell count with doxorubicin only (active)	-2.02	-1.69	-1.01	0.76
13	Slc41a2	no change with or without drug	0.22	-0.84	1.01	0.96
14	Rcan3	no change with or without drug	1.8	0.51	1.57	1.1
15	Ccdc163	low cell count without drug only	-1.57	-2.19	0	0.8
16	Irgc	no change with or without drug	0	1.35	-0.79	0.94
17	Gtf2e1	no change with or without drug	1.12	0.84	0.67	1.04
18	Nucks1	high cell count with doxorubicin only	2.02	0.51	1.8	1.12
19	Qprt	no change with or without drug	0	0	0.11	0.94
20	Rpl41	no change with or without drug	-0.45	0.67	-0.79	0.9
21	Akr1b7	no change with or without drug	0.34	0	0.45	0.97
22	Aldh1l2	no change with or without drug	0.11	1.01	-0.45	0.95
23	Adgrl2	no change with or without drug	0.56	-0.17	0.79	0.99
24	Nek2	no change with or without drug	-0.45	0.17	-0.45	0.9
25	Fbxl2	no change with or without drug	0.67	0.17	0.67	1
26	Gtf2a1	no change with or without drug	-0.56	0.51	-0.79	0.89
27	Foxd2	no change with or without drug	0.9	1.85	-0.22	1.02
28	Marco	no change with or without drug	1.12	-1.52	2.59	1.04
29	Smpdl3b	high cell count with doxorubicin only	2.59	0.17	2.7	1.17
30	Gpr132	no change with or without drug	0.22	-0.51	0.67	0.96
31	Rack1	low cell count without drug only	-1.57	-2.19	0	0.8
32	Zfp935	no change with or without drug	1.35	1.18	0.67	1.06
33	Fignl1	no change with or without drug	0.67	0.67	0.34	1
34	Slc22a13	low cell count without drug only	-1.46	-2.53	0.34	0.81
35	Nol6	no change with or without drug	-0.11	-0.84	0.56	0.93
36	Sirpb1a	no change with or without drug	-0.56	-1.01	0.22	0.89
37	Kcnj3	no change with or without drug	-0.67	0.34	-0.79	0.88
38	Orc6	high cell count without drug only	1.01	2.7	-0.56	1.03
39	Smad6	no change with or without drug	0.22	0.17	0.22	0.96
40	Hibch	no change with or without drug	1.24	0.51	1.01	1.05
41	Tmem33	no change with or without drug	1.91	1.18	1.24	1.11
42	Nlrp2	no change with or without drug	1.24	0	1.46	1.05
43	Dll1	no change with or without drug	0.56	0.51	0.34	0.99
44	Hcn3	no change with or without drug	-0.79	-0.17	-0.56	0.87
45	Psmc1	low cell count with and without drug	-7.42	-5.56	-5.96	0.28
46	Adgrg7	no change with or without drug	-0.79	-1.01	0	0.87
47	Sgsm2	no change with or without drug	1.01	-0.17	1.35	1.03
48	Pafah1b1	no change with or without drug	0	-1.85	1.57	0.94
49	Dok4	no change with or without drug	-0.11	-0.51	0.34	0.93
50	A530079E22Rik	no change with or without drug	0.22	-0.17	0.45	0.96

Quoted from the listing, 4 entries:
no.	Target gene	combined z-score class	viability z-score with doxorubicin	viability z-score without drug	z-score of drug to no-drug ratio	doxorubicin viability vs non-targeting
33	Fignl1	no change with or without drug	0.67	0.67	0.34	1
34	Slc22a13	low cell count without drug only	-1.46	-2.53	0.34	0.81
35	Nol6	no change with or without drug	-0.11	-0.84	0.56	0.93
36	Sirpb1a	no change with or without drug	-0.56	-1.01	0.22	0.89
